Data taken from publication PMC9905489.
Results are given in words; binding and its absence hold for the method and conditions named. In cells and extracts the contact can be indirect. Some results given as binding are weak or reduced against the parent protein; the word gives no strength. For some assays here: Sequences can lack the tags named with a protein.

T1: AURKA, endogenous (human (endogenous; all cell lines of the paper are human, the line of Fig. 4B is not stated)) (UniProt O14965)
T1 sequence: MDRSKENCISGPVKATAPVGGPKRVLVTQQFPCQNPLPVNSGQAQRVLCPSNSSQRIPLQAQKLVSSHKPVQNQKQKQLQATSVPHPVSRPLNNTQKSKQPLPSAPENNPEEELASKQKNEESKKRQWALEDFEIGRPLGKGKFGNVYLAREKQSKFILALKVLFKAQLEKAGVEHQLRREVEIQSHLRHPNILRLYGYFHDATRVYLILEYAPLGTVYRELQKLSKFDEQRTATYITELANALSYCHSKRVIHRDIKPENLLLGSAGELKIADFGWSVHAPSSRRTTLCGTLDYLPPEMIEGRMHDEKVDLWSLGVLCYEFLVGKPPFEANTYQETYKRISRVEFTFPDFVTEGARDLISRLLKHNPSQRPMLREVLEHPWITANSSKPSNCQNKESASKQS

T2: His-labelled AURKA (UniProt O14965)
T2 sequence: T1 sequence

B1: Hyaluronan-mediated motility receptor (HMMR), endogenous (protein, UniProt O75330 1-724)
chain: MSFPKAPLKRFNDPSGCAPSPGAYDVKTLEVLKGPVSFQKSQRFKQQKESKQNLNVDKDTTLPASARKVKSSESKESQKNDKDLKILEKEIRVLLQERGAQDRRIQDLETELEKMEARLNAALREKTSLSANNATLEKQLIELTRTNELLKSKFSENGNQKNLRILSLELMKLRNKRETKMRGMMAKQEGMEMKLQVTQRSLEESQGKIAQLEGKLVSIEKEKIDEKSETEKLLEYIEEISCASDQVEKYKLDIAQLEENLKEKNDEILSLKQSLEENIVILSKQVEDLNVKCQLLEKEKEDHVNRNREHNENLNAEMQNLKQKFILEQQEREKLQQKELQIDSLLQQEKELSSSLHQKLCSFQEEMVKEKNLFEEELKQTLDELDKLQQKEEQAERLVKQLEEEAKSRAEELKLLEEKLKGKEAELEKSSAAHTQATLLLQEKYDSMVQSLEDVTAQFESYKALTASEIEDLKLENSSLQEKAAKAGKNAEDVQHQILATESSNQEYVRMLLDLQTKSALKETEIKEITVSFLQKITDLQNQLKQQEEDFRKQLEDEEGRKAEKENTTAELTEEINKWRLLYEELYNKTKPFQLQLDAFEVEKQALLNEHGAAQEQLNKIRDSYAKLLGHQNLKQKIKHVVKLKDENSQLKSEVSKLRCQLAKKKQSETKLQEELNKVLGIKHFDPSKAFHHESKENFALKTPLKEGNTNCYRAPMECQESWK
B2: Flag-labelled HMMR (protein, UniProt O75330 1-724)
chain: B1 chain

Columns and labels:
[1] = biological target: T1, AURKA, endogenous (human (endogenous; all cell lines of the paper are human, the line of Fig. 4B is not stated)); experiment: co-IP; endogenous HMMR and AURKA; immunoprecipitation with anti-HMMR or anti-AURKA antibodies, western blot; cell line not stated
His-labelled AURKA = biological target: T2, His-labelled AURKA; experiment: co-IP; Flag-HMMR or its deletion mutants with His-AURKA, co-transfected (HEK-293T stated for the deletion mutants); whole-cell lysates immunoprecipitated with anti-His (for the whole protein also anti-Flag) and blotted with anti-Flag

Binder	binding [1]	binding (His-labelled AURKA)
B1	binds	–
B2	–	binds
